Experimental data published in patent US20230322941A1.
Positions count from the first letter of the chain named. No constants are given. Whether binding was seen depends on the method and setting. Some binding calls cover weakened binding; strength is not graded here.

Sequences of proteins named here, by UniProt entry; tags and fusion partners are left off. A change or cut given only in a name is not applied to a line headed by its entry.
UniProt P25942: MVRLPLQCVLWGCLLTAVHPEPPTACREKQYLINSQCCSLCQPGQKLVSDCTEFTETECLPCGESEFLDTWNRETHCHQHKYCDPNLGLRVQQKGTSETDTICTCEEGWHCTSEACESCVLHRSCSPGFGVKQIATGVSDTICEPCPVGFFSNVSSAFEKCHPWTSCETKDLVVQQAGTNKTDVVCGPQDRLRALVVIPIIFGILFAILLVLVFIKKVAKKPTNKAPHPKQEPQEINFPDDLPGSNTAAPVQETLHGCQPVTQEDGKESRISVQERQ

B1: chimeric Y1238 supernatant (HC-Chim / LC-Chim) (antibody, V domains shown)
VH: QVQLQQSGAELVRPGTSVKVSCKASGYAFTNYLIEWVKQRPGQGLEWIGVINPGSGGTNYNEKFKGKATLTADKSSSTAYMQLSSLTSDDSAVYFCARSQLGRRFDYWGQGTTLTVSS
VL: DIVMTQSHKFMSTSVGDRVSITCKASQDVRTGVAWYQQKPGQSPKLLIYSASYRNTGVPDRFTGSRSGTDFTFTISSVQAEDLAVYYCQQHYSPPYTFGGGTKLEIK
B2: humanized Y1238 hz40 (hz-HC8/hz-LC5) (antibody, IgG1, V domains shown)
VH: QVQLVQSGAEVVKPGASVKVSCKASGYAFTNYLIEWVRQRPGQGLEWMGVINPGSGGTNYNEKFKGRVTLTADKSSSTAYMQLSRLRSDDTAVYFCARSQLGRRFDYWGQGTLVTVSS
VL: DIQMTQSPSSLSASVGDRVTITCKASQDVRTGVAWYQQKPGQAPKLLIYSASYRNTGVPSRFSGSRSGTDFTFTISSLQPEDIAVYYCQQHYSPPYTFGGGTKVEIK
B3: humanized Y1238 hz43 (hz-HC9/hz-LC3) (antibody, IgG1, V domains shown)
VH: B2 VH with L113T
VL: B2 VL with A43S
B4: humanized Y1238 hz54 (hz-HC11/hz-LC4) (antibody, IgG1, V domains shown)
VH: B2 VH with V12K, L70M, A72R, Q82E
VL: B2 VL with A43S, P80A
B5: humanized Y1238 hz50 (hz-HC10/hz-LC5) (antibody, IgG1, V domains shown)
VH: B2 VH with V12K, L70M, A72R, S76I, Q82E, F95Y
VL: B2 VL
B6: humanized Y1238 hz45 (hz-HC9/hz-LC5) (antibody, IgG1, V domains shown)
VH: B2 VH with L113T
VL: B2 VL
B7: humanized Y1238 hz41 (hz-HC9/hz-LC1) (antibody, IgG1, V domains shown)
VH: B2 VH with L113T
VL: B2 VL with Q42K, R66G, V85T
B8: humanized Y1238 hz51 (hz-HC11/hz-LC1) (antibody, IgG1, V domains shown)
VH: B2 VH with V12K, L70M, A72R, Q82E
VL: B2 VL with Q42K, R66G, V85T
B9: humanized Y1238 hz52 (hz-HC11/hz-LC2) (antibody, IgG1, V domains shown)
VH: B2 VH with V12K, L70M, A72R, Q82E
VL: B2 VL with Q42K, V85T
B10: humanized Y1238 hz55 (hz-HC11/hz-LC5) (antibody, IgG1, V domains shown)
VH: B2 VH with V12K, L70M, A72R, Q82E
VL: B2 VL
B11: humanized Y1238 hz49 (hz-HC10/hz-LC4) (antibody, IgG1, V domains shown)
VH: B2 VH with V12K, L70M, A72R, S76I, Q82E, F95Y
VL: B2 VL with A43S, P80A
B12: humanized Y1238 hz44 (hz-HC9/hz-LC4) (antibody, IgG1, V domains shown)
VH: B2 VH with L113T
VL: B2 VL with A43S, P80A
B13: humanized Y1238 hz46 (hz-HC10/hz-LC1) (antibody, IgG1, V domains shown)
VH: B2 VH with V12K, L70M, A72R, S76I, Q82E, F95Y
VL: B2 VL with Q42K, R66G, V85T
B14: humanized Y1238 hz42 (hz-HC9/hz-LC2) (antibody, IgG1, V domains shown)
VH: B2 VH with L113T
VL: B2 VL with Q42K, V85T
B15: humanized Y1238 hz48 (hz-HC10/hz-LC3) (antibody, IgG1, V domains shown)
VH: B2 VH with V12K, L70M, A72R, S76I, Q82E, F95Y
VL: B2 VL with A43S
B16: humanized Y1238 hz53 (hz-HC11/hz-LC3) (antibody, IgG1, V domains shown)
VH: B2 VH with V12K, L70M, A72R, Q82E
VL: B2 VL with A43S
B17: humanized Y1238 hz47 (hz-HC10/hz-LC2) (antibody, IgG1, V domains shown)
VH: B2 VH with V12K, L70M, A72R, S76I, Q82E, F95Y
VL: B2 VL with Q42K, V85T

What follows are binders tested against human-CD40 monomer (human) (UniProt P25942) (assay: SPR 2 pt screen).

For B1, which binding is on record?
The binding was “binds”.

For B2, which binding is on record?
Its binding is “binds”.

B3 was tested. Which binding did it give?
Its binding is “binds”.

For B4, which binding is on record?
Its binding is “binds”.

For B5, which binding is on record?
The binding was “binds”.

Which binding does the source give for B6 here?
The binding was “binds”.

With B7 as the binder, how does the binding read?
Its binding is “binds”.

With B8 as the binder, how does the binding read?
The binding was “binds”.

For B9, which binding is on record?
The binding was “binds”.

With B10 as the binder, how does the binding read?
Its binding is “binds”.

For B11, which binding is on record?
Its binding is “binds”.

B12 was tested. Which binding did it give?
The binding was “binds”.

With B13 as the binder, how does the binding read?
Its binding is “binds”.

B14 was tested. Which binding did it give?
Its binding is “binds”.

B15 was tested. Which binding did it give?
The binding was “binds”.

B16 was tested. Which binding did it give?
The binding was “binds”.

Which binding does the source give for B17 here?
Its binding is “binds”.
